The list shows a part of the results. Shown are side measurements of this screen, not its main read-out; they come without a call. Most of these compounds were active or inconclusive in the main read-out, so they are no random draw. The note in brackets gives the kind of curve behind each potency; many fits are weak.

This assay is described as follows: qHTS Assay to Find Inhibitors of Chronic Active B-Cell Receptor Signaling. The conditions noted are these: ABC-DLBCL IkBa-CBG/CBR reporter, luminescence ratio (green luciferase fused to IkBa over red control in TMD8 lymphoma cells), 4 h. The essentials:
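Cell line TMD8 (human ABC DLBCL), stably expressing tet-inducible CBG68-IkBa fusion and CBR; IMDM/0.5% FBS; cpd up to 46 uM; dox induction, 4 h, 37C/5% CO2; dual luminescence; green/red ratio; MG132 control.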
In general terms: In qHTS, concentration-response curves come from the screen itself.

The mark [1] stands for this setting: measured here: CBR red luminescence, cell number.
Where [2] appears, read: measured here: IkBa-CBG green luminescence.

Usually AC50 stands for the concentration giving half of the maximal activity seen. Regarding `C/C(=N\NC(=O)c1nnn(-c2nonc2N)c1CN1CCCCCC1)c1ccc(Br)cc1`, under setting [1], the AC50 was 35.5 µM [falling, partial curve, poor fit].
With `Cc1ccc(C)c(N2CCN(C(=O)CCc3nc(-c4cccc(Cl)c4)no3)CC2)c1`, under setting [1], the AC50 is 16.4 µM [rising, single point].
`Cc1ccc(NC(=O)CCNC(=O)c2ccc(Br)cc2)cc1S(=O)(=O)N1CCCCCC1`: the concentration at half-maximal activity (AC50) under setting [1] was 32.6 µM [falling, single point].
`Cc1cc(NC(=O)CN2CCN(S(=O)(=O)c3ccc(Cl)cc3)CC2)no1`: the concentration at half-maximal activity (AC50) under setting [1] was 4.61 µM [falling, single point].
Take `Cc1[nH]c2ccccc2c1CC(=O)O`: the AC50 under setting [1] was 16.4 µM [falling, single point].
On to `Cc1cccc(C)c1OCC(=O)N/N=C/C=C/c1ccco1`, for which the AC50 under setting [2] was 25.1 µM [falling, partial curve, poor fit].
Turning to `COc1ccc(-c2csc(NC(=S)NC(=O)/C=C/c3ccccc3)n2)cc1Br`, under setting [1], the AC50 is 20 µM [rising, partial curve, poor fit].
Regarding `Cc1ccc(CN2CCN(Cc3ccc(-n4cccn4)cc3)CC2CCO)cc1` (configuration not stated), under setting [1], the half-maximal activity concentration (AC50) is 11.2 µM [rising, partial curve, poor fit].
With `CCCS(=O)(=O)N1CCN(C(=O)CCC2CCCC2)CC1`, the AC50 under setting [1] is 0.0651 µM [rising, full curve, poor fit].
On the same count and under the same terms, the result for `CC(=O)c1c(C)nc(-c2ccccc2)nc1N` reads 3.16 µM [falling, partial curve, poor fit].
As for `Nc1nc(C2C(=O)CCCC2=O)cs1`, under setting [1], the half-maximal activity concentration (AC50) was 32.6 µM [rising, single point].
For `CC(=O)N(C1=C(Cl)C(=O)c2ccccc2C1=O)C1CCCCC1`, the half-maximal activity concentration (AC50) is 22.4 µM [falling, single point] under setting [1] and 35.5 µM [rising, single point] under setting [2].
In the case of `CCOC(=O)c1c(NC(=O)c2cc3nc(-c4ccc(OC)cc4)cc(C(F)(F)F)n3n2)sc(C)c1C`, under setting [1], the half-maximal activity concentration (AC50) was 0.112 µM [falling, full curve, poor fit].
With `CS(=O)(=O)N1CCN(C(=O)c2c(F)cccc2F)CC1`, under setting [1], the AC50 was 5.8 µM [rising, full curve, poor fit].
Regarding `COc1ccccc1C1=NOC(COc2ccc3c(C)cc(=O)oc3c2)C1` (configuration not stated), the AC50 by setting is: under setting [1], 2.82 µM [rising, full curve]; under setting [2], 7.08 µM [falling, partial curve].
`COc1ccc(CN2CCNC(=O)C2CC(=O)NCCc2nc(C)c(C)s2)cc1C` (configuration not stated): the AC50 under setting [1] is 10 µM [rising, partial curve, poor fit].
On to `COc1ccc(CCNC(=O)Cn2cc(C(F)(F)F)cc(Cl)c2=O)cc1OC`, for which, under setting [1], the concentration at half-maximal activity (AC50) is 4.11 µM [rising, full curve, poor fit].
The same measure, in the same setting: with `Cc1ccc(C(=O)N/N=C\c2ccc(OC(=O)c3cccs3)cc2)cn1` the figure was 29.1 µM [rising, single point]; with `CCOC(=O)Cc1csc(NC(=O)Cc2cccs2)n1`, 11.2 µM [falling, partial curve, poor fit].
On the same count and under the same terms, the result for `COc1ccc(C)cc1S(=O)(=O)N1CCN(c2cccc(C(F)(F)F)c2)CC1` reads 7.31 µM [rising, partial curve, poor fit]; that for `Cc1cc(/C=C2/SC(=O)N(CC(=O)N3CCCC3)C2=O)c(C)n1C`, 1.58 µM [rising, full curve, poor fit].
`COc1cc(/C=N/NC(=O)c2ccccn2)ccc1OC(=O)c1cccs1`: the AC50 under setting [1] was 35.5 µM [falling, single point].
Still for that read-out and setting: with `O=C(CN1C(=O)c2ccccc2C1=O)OCC(=O)c1ccc(F)cc1` the figure was 3.26 µM [rising, full curve]; with `O=C(Cn1cnc2c(nnn2Cc2ccccc2F)c1=O)OCc1ccccc1`, 35.5 µM [rising, single point]; with `Cc1nn(CCc2n[nH]c(=S)n2-c2ccc(F)c(Cl)c2)c(C)c1[N+](=O)[O-]`, 2.82 µM [rising, full curve, poor fit].
On to `O=c1[nH]n(-c2ccccc2Cl)c(=O)c2ccccc12`, for which, under setting [1], the concentration at half-maximal activity (AC50) was 5.62 µM [falling, partial curve, poor fit].
On the same count and under the same terms, with `CC(Sc1nc2ncc(Cl)cc2[nH]1)C(=O)NC1(C#N)CCCCC1` (configuration not stated) the figure was 29.1 µM [falling, partial curve, poor fit]; with `CCN1CCN(Cc2ccc(NC(=O)c3cc(NC(=O)C(=O)c4c[nH]c5ccccc45)cc(OC)c3)cc2C(F)(F)F)CC1`, 12.6 µM [falling, partial curve, poor fit].
As to `CN(C)S(=O)(=O)c1cccc(COc2ccccc2C(=O)Nc2ccccc2)c1`, under setting [1], the concentration at half-maximal activity (AC50) is 35.5 µM [falling, single point].
Consider `Cc1nc(Nc2ccc(F)cc2)[nH]c(=O)c1CCC(C)C`, for which, under setting [1], the AC50 is 1.3 µM [rising, full curve].
As for `COc1ccc(C2N(c3ccc(OC)cc3)C(=O)C3CCCN32)cc1` (configuration not stated), the AC50 under setting [1] was 2.91 µM [falling, single point].
Regarding `CSc1ncc(C(=O)Nc2ccc(Br)cn2)c(C)n1`, the AC50 under setting [1] was 35.5 µM [falling, single point].
Regarding `CC(=O)Nc1ccc(/C=C/C(=O)c2ccc3c(c2)OCCO3)cc1`, the concentration at half-maximal activity (AC50) under setting [1] is 11.2 µM [falling, single point].
Turning to `Cc1ccc2nc(NCCCO)nc(-c3ccccc3)c2c1`, the AC50 under setting [1] was 0.651 µM [falling, full curve, poor fit].
As to `O=C1C2C3C=CC(CC3)C2C(=O)N1c1cccc(Br)c1` (configuration not stated), the concentration at half-maximal activity (AC50) under setting [1] was 35.5 µM [falling, partial curve, poor fit].
On the same count and under the same terms, the result for `CC(=O)Nc1ccc(NC(=O)c2ccc3c(c2)C(=O)N(c2ccccc2C)C3=O)cc1` reads 0.0891 µM [rising, full curve, poor fit]; that for `Cc1cc(C)nc(NC(=NCCc2c[nH]c3ccccc23)NC(=O)Nc2ccccc2)n1`, 29.1 µM [falling, single point]; that for `CCc1ccccc1NC(=O)c1cc(-c2cccc(O)c2)on1`, 22.4 µM [falling, partial curve, poor fit].
For the compound `O=C1NC2(CCCC2)N=C1c1ccc(F)cc1`, the concentration at half-maximal activity (AC50) under setting [1] is 25.9 µM [rising, single point].
The same measure, in the same setting: with `Cc1cccc(NC(=O)c2ccc(OC3CSC3)cc2)c1` the figure was 23.1 µM [falling, single point].

Values taken from PubChem BioAssay AID493014 (National Center for Advancing Translational Sciences (NCATS), 2011).
